In patent EP0392976A1, “Monoclonal antibodies to tetracyclic compounds, processes for their production, and applications” (CIBA-GEIGY AG, priority 1989, dated 1990) one finds IC50 data, which are given here for 1 molecule.

Experiment in all cases: inhibition enzyme immunoassay: inhibition of MAb binding to surface bound R-(-)-oxaprotiline-mucin conjugate
Holding throughout (set-up): species or system mouse
What all share (conditions): read-out: IC₅₀

For one assay, the target named is MAb 1228P63.1. As to the method:
(§1) The affinities of the monoclonal antibodies of the invention to R-(-)-oxaprotiline can for example be determined in an inhibition enzyme immunoassay according to Friguet et al. (J. Immunol. Methods 77, 305, 1985) wherein the monoclonal antibody to be tested is preincubated with R-(-)-oxaprotiline and, in a second step, exposed to a solid phase coated with an adsorbable conjugate of R-(-)-oxaprotiline, e.g. a protein conjugate. The fraction of the monoclonal antibody not engaged in immunocomplexes binds to the solid phase and is quantified by a secondary antibody-enzyme conjugate directed against the monoclonal antibody. The affinities are expressed as IC₅₀ (inhibition concentration) values, i.e. the concentration of free antigen causing a 50 % inhibition of antibody binding to the solid phase antigen.
(§2) The selectivity of the monoclonal antibodies of the invention is tested by analyzing inhibition of monoclonal antibody binding to R-(-)-oxaprotiline by structurally similar compounds, e.g. by other dibenzobicyclo[2.2.2]octadiene compounds which differ from R-(-)-oxaprotiline by chemical modifications of the tetracyclic ring structure and/or the aliphatic side chain, by therapeutic compounds lacking the dibenzobicyclo[2.2.2]octadiene skeleton which are potentially used in combination with the antidepressant, and by the enantiomer S-(+)-oxaprotiline. This can be done, for example, in an inhibition enzyme immunoassay wherein the monoclonal antibodies of the invention are preincubated with any of the soluble compounds listed above and the incubation mixture is then tested in the enzyme immunoassay described above.
(§3) The conjugate solution (0.66 mg/ml) is diluted 1000-fold in coating buffer pH 9.8 (477 mg sodium carbonate, 897 mg sodium hydrogen carbonate, 60 mg sodium azide, 300 ml distilled water) and incubated in the wells of a microtitre plate for 2 days at 4°C. The wells are washed three times with PBS containing Tween 20 (Sigma, 0.1 %). Residual adsorption sites on the plate are saturated by incubation with 100 µl of PBS/Tween 20 for 1 h. […] The substrate gives a yellow coloration which is measured with a colorimeter (Titertek Multiskan) at a wave length of 405 nm after 60 min.
(§4) The assay is carried out as described in the following. […] The incubation mixture is then transferred to R-(-)-oxaprotiline-mucin coated microtitre plates and the relative concentration of antibody not engaged in immunocomplexes with the soluble compound is determined as described in example 1.4.
(§5) The capacity of free R-(-)-oxaprotiline and of a number of compounds which are structurally analogous to R-(-)-oxaprotiline to inhibit the binding of the monoclonal antibodies of the invention to the antigen is determined in an inhibition enzyme immunoassay essentially as described in example 3.2. […]

In another assay the target is MAb 1219S78.6. As to the method: as §1, §2, §3, §4, §5
The next assay addresses MAb 1219S59.11. As to the method: as §1, §2, §3, §4, §5
The next assay has as its target MAb 1225S93.2. As to the method: as §1, §2, §3, §4, §5

In the case of `CNCCCC12CCC(c3ccccc31)c1ccccc12` [compound 6, 1-(3-methylamino-propyl)-dibenzo[b,e]-bicyclo[2.2.2]-octadiene-hydro-chloride], the IC50 on MAb 1228P63.1 turned out to be 1.05 nM; at MAb 1219S78.6, 0.315 nM; on MAb 1219S59.11, 2.55 nM; at MAb 1225S93.2 it was 0.44 nM.
